Screen size: about 330,000 compounds; about 610 (0.18%) were called active. This list was built around the results that the source calls inconclusive (neither active nor inactive); the mix of calls is not that of the screen. The call rests on the fitted dose curve. Potencies beside an inconclusive call are fits to weak or partial responses and may not hold up.
Test: qHTS of Yeast-based Assay for SARS-CoV PLP; further: nearly all actives have a fitted effect of over 55% in size; on activity, positive = growth rescue: 0% is about no effect
Conditions: S. cerevisiae expressing SARS-CoV PLpro; Potency: growth rescue; activity, positive = growth rescue: at 32.9 µM (top of the series)
Potency means the concentration at half of the fitted maximal effect.

Row | SMILES | Potency | activity, positive = growth rescue
1 | CCOC(=O)c1c(NC(=O)CSc2nnc(CNc3ccc(Cl)cc3)o2)sc(C)c1C | inconclusive: 15.8 µM [activator, partial curve, poor fit] | –
2 | CCOc1ccc(CCNC(=O)CS(=O)Cc2nc(-c3ccc(OC)cc3)oc2C)cc1OCC (configuration not stated) | inconclusive: 25.1 µM [activator, partial curve, poor fit] | –
3 | CCC(C(=O)OC)n1cnc2c(cnn2-c2ccc(Cl)cc2)c1=O (configuration not stated) | inconclusive: 4.47 µM [activator, single point] | –
4 | Cc1ccc2nc(Nc3nc(CSc4nnnn4-c4ccccc4)cc(=O)[nH]3)nc(C)c2c1 | inconclusive: 4.47 µM [activator, single point] | –
5 | O=C(Cn1cnc2c(oc3nc4c(cc32)CCCC4)c1=O)Nc1ccccc1 | – | inactive: -5.81%
6 | Cc1ccc(S(=O)(=O)N2CCCCC2)cc1C(=O)N(C)CCOc1ccccc1 | inconclusive: 0.447 µM [activator, full curve] | –
7 | Oc1ccc(/C=N/Nc2ncnc3c2ncn3Cc2ccccc2)cc1O | inconclusive: 10 µM [activator, partial curve] | –
8 | CCc1noc(C)c1C(=O)N1CCCC(CCC(=O)NCc2cccc(OC)c2)C1 (configuration not stated) | – | inactive: -0.0719%
9 | COc1cc(NC(=O)C2CC2)c(OC)cc1NC(=O)CCC(=O)NC1CCN(Cc2ccccc2)CC1 | – | inactive: 1.19%
10 | CC(=O)NC(c1cccc([N+](=O)[O-])c1)c1ccc2cccnc2c1O (configuration not stated) | active: 1.12 µM | –
11 | Cc1ccc(O)c(NC(=O)c2cc(-c3ccccc3)on2)c1 | inconclusive: 20 µM [activator, single point] | –
12 | Cc1c(C(c2ccc(F)cc2)c2c(O)c3ccccc3oc2=O)c(=O)n(-c2ccccc2)n1C (configuration not stated) | inconclusive: 2.51 µM [activator, partial curve] | –
13 | CCCN1C/C(=C/c2ccc3c(c2)OCO3)C(=O)/C(=C/c2ccc3c(c2)OCO3)C1 | active: 14.1 µM | –
14 | Cc1ccc(S(=O)Cc2ccc(C(=O)N3CCN(C(=O)c4ccco4)CC3)o2)cc1 (configuration not stated) | inconclusive: 3.55 µM [activator, single point] | –
15 | CSc1nnc(Cn2c(=O)sc3ccccc32)n1CCc1ccccc1 | – | inactive: -5.92%
16 | CC1=C(C(=O)N2CCOCC2)C(c2cccc3ccccc23)NC(=S)N1 (configuration not stated) | inconclusive: 10 µM [activator, partial curve] | –
17 | C/C(CC(=O)Nc1ccc(N(C)C)cc1)=N\NC(=O)Cc1csc(N)n1 | active: 17.8 µM | –
18 | Cc1ccc(CCNC(=O)c2nnn(-c3cccc(C)c3)c2N)cc1 | inconclusive: 4.47 µM [activator, single point] | –
19 | Cc1cc(OCC(=O)N2CCC(C(=O)O)CC2)c2c(C)cc(=O)oc2c1 | inconclusive: 11.2 µM [activator, single point] | –
20 | COc1ccccc1OCCCCN1CCN(c2ccccc2OC)CC1 | inconclusive: 20 µM [activator, single point] | –
21 | CC(C)c1nnc(NC(=O)CCC2CCCCC2)s1 | – | inactive: 4.61%
22 | CCN(CC)c1ccc(C(=O)Nc2ccccc2)cc1[N+](=O)[O-] | – | inactive: -3.79%
23 | Cc1cccc(N2C(=O)NC(=O)/C(=C\c3cc(C)n(-c4sc5c(c4C#N)CCCC5)c3C)C2=O)c1C | – | inactive: -16.2%
24 | Cc1ccc(C)c(N2CCN(C(=O)CCS(=O)(=O)c3ccc4c(c3)oc(=O)n4C)CC2)c1 | – | inactive: 0.546%

From entry 6 as far as 18, copied from above:
Row | SMILES | Potency | activity, positive = growth rescue
6 | Cc1ccc(S(=O)(=O)N2CCCCC2)cc1C(=O)N(C)CCOc1ccccc1 | inconclusive: 0.447 µM [activator, full curve] | –
7 | Oc1ccc(/C=N/Nc2ncnc3c2ncn3Cc2ccccc2)cc1O | inconclusive: 10 µM [activator, partial curve] | –
8 | CCc1noc(C)c1C(=O)N1CCCC(CCC(=O)NCc2cccc(OC)c2)C1 (configuration not stated) | – | inactive: -0.0719%
9 | COc1cc(NC(=O)C2CC2)c(OC)cc1NC(=O)CCC(=O)NC1CCN(Cc2ccccc2)CC1 | – | inactive: 1.19%
10 | CC(=O)NC(c1cccc([N+](=O)[O-])c1)c1ccc2cccnc2c1O (configuration not stated) | active: 1.12 µM | –
11 | Cc1ccc(O)c(NC(=O)c2cc(-c3ccccc3)on2)c1 | inconclusive: 20 µM [activator, single point] | –
12 | Cc1c(C(c2ccc(F)cc2)c2c(O)c3ccccc3oc2=O)c(=O)n(-c2ccccc2)n1C (configuration not stated) | inconclusive: 2.51 µM [activator, partial curve] | –
13 | CCCN1C/C(=C/c2ccc3c(c2)OCO3)C(=O)/C(=C/c2ccc3c(c2)OCO3)C1 | active: 14.1 µM | –
14 | Cc1ccc(S(=O)Cc2ccc(C(=O)N3CCN(C(=O)c4ccco4)CC3)o2)cc1 (configuration not stated) | inconclusive: 3.55 µM [activator, single point] | –
15 | CSc1nnc(Cn2c(=O)sc3ccccc32)n1CCc1ccccc1 | – | inactive: -5.92%
16 | CC1=C(C(=O)N2CCOCC2)C(c2cccc3ccccc23)NC(=S)N1 (configuration not stated) | inconclusive: 10 µM [activator, partial curve] | –
17 | C/C(CC(=O)Nc1ccc(N(C)C)cc1)=N\NC(=O)Cc1csc(N)n1 | active: 17.8 µM | –
18 | Cc1ccc(CCNC(=O)c2nnn(-c3cccc(C)c3)c2N)cc1 | inconclusive: 4.47 µM [activator, single point] | –

Following part

Row | SMILES | Potency | activity, positive = growth rescue
25 | COc1ccc(Nc2nc(-c3sc(NC(C)=O)nc3C)cs2)cc1 | active: 3.16 µM | –
26 | O=C(Cn1c(=O)[nH]c2ccccc2c1=O)Nc1ccc2c(c1)OCCO2 | inconclusive: 20 µM [activator, single point] | –
27 | CN(C)CCNC(=S)Nc1cccc(Cl)c1 | inconclusive: 3.16 µM [activator, single point] | –
28 | Cc1cc(C(F)(F)F)nc(SCCN2CCOCC2)c1C#N | – | inactive: -0.827%
29 | CCOC(=O)C1=C(Cn2cnc3ccccc32)NC(=O)NC1c1ccc(Cl)cc1 (configuration not stated) | inconclusive: 4.47 µM [activator, single point] | –
30 | CCN(CC(=O)Nc1cc(Cl)cc(Cl)c1)CC(=O)NC1CCS(=O)(=O)C1 (configuration not stated) | – | inactive: 0.112%
31 | CC(=O)Nc1ccc(NC(=O)C2CCCN(c3nnc(-n4cccc4)s3)C2)cc1 (configuration not stated) | inconclusive: 2.82 µM [activator, partial curve] | –
32 | CCN(CCn1cccn1)C(=O)c1cccc(OC2CCN(S(C)(=O)=O)CC2)c1 | inconclusive: 3.16 µM [activator, partial curve] | –
33 | Cn1cccc1Cc1nnc(SCC(=O)N2CCOCC2)n1-c1ccc(F)cc1 | inconclusive: 4.47 µM [activator, single point] | –
34 | O=C(NNC(=S)Nc1cccc(Cl)c1)c1ccccc1 | inconclusive: 0.891 µM [activator, full curve, poor fit] | –
35 | O=Cc1ccc(C(=O)OCC(=O)NCc2ccco2)cc1 | – | inactive: 2.51%
36 | COc1ccc(O)c(CN2CCCC(N3CCc4ccccc4C3)C2)c1 (configuration not stated) | – | inactive: 4.97%
37 | COc1cccc(NC(=O)Cn2c(CCC(=O)O)ccc2-c2ccc(C)cc2)c1 | inconclusive: 4.47 µM [activator, single point] | –
38 | Cc1ccc(Nc2nnns2)cc1 | inconclusive: 14.1 µM [activator, single point] | –
39 | CC(/C=C/c1ccccc1)NC(N)=O (configuration not stated) | inconclusive: 2.82 µM [activator, single point] | –
40 | CCOc1ccccc1C1CC(=O)Nc2cc3c(cc21)OCCO3 (configuration not stated) | – | inactive: -3%
41 | O=C(NCC(c1cccnc1)N1CCN(c2ccccc2F)CC1)C1CCCCC1 (configuration not stated) | inconclusive: 20 µM [activator, single point] | –
42 | CC(C)/C=N/NC(=O)c1cc(Br)ccc1O | active: 10 µM | –
43 | Cc1cc(N2CCCC2)nc2ccc(NC(=S)NC(C)C)cc12 | – | inactive: -4.64%
44 | Cc1ccc(S(=O)(=O)c2nc(S(C)(=O)=O)sc2NCC2CCCO2)cc1 (configuration not stated) | inconclusive: 1.12 µM [activator, partial curve] | –
45 | Cc1c(C(=O)N(C)CCCCN2CCOCC2)oc2c(F)cccc12 | – | inactive: -2.26%
46 | Cc1ccccc1OCc1n[nH]c(=S)n1Cc1ccccc1 | inconclusive: 20 µM [activator, single point] | –
47 | CC(=O)c1cccc(NC(=S)NC2CC2)c1 | inconclusive: 20 µM [activator, single point] | –

— PubChem BioAssay AID485353 (National Center for Advancing Translational Sciences (NCATS), 2010)
